Results: US20140309244A1, “NOVEL MICROBIOCIDES” (SYNGENTA PARTICIPATIONS AG, priority 2010, published 2014)
Some entries share one result that the patent states for a list of compounds.

Test system: Alternaria solani
Assay: Alternaria solani / tomato / leaf disc (early blight)
Assay type: in vivo
Conditions: 200 ppm, tomato cv. Baby leaf disks, inoculated 2 days after application, assessed 5-7 days after application

## CO/N=C(\C)c1cccc(CCCO/N=C2\CCCc3cc4c(nc32)CCCC4)n1 [P.94]
  control of Alternaria solani (percent disease control compared to untreated): at least 80%
